The structures given here were assigned with low confidence; some may be wrong.
Target: serotonin 5-HT3A receptor (Homo sapiens, UniProt P46098)
Experiment: Assay for 5-HT3A receptor: two-electrode voltage clamp in Xenopus oocytes, inhibition of 5-HT-induced inward current
Type: cell-based
Conditions: 5-HT3A receptor expressed in Xenopus laevis oocytes

By UniProt entry, the sequences of proteins in these tests, tags left out. Residues count along the entry.
UniProt P46098, 24-478 limits assumed: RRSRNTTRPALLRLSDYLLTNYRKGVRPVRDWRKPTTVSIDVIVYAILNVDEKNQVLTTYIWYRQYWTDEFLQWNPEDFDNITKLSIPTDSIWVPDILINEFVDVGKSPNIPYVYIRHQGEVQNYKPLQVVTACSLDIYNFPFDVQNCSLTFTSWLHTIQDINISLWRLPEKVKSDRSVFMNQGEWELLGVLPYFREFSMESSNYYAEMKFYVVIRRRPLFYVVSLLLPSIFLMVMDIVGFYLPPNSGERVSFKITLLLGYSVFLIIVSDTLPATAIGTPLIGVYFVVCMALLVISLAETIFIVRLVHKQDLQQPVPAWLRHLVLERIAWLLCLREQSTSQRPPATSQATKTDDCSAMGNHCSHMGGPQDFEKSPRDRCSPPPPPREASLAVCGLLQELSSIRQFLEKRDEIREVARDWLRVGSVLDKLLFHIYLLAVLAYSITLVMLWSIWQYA

`CC1CCCCN1CCCNC(=O)c1ccc2c(=O)n(Cc3ccc(Cl)cc3)c(=O)[nH]c2c1` (stereo not drawn) was tested, and the “nH (Hill coefficient)” value (from concentration-response curves) was 1.1 ± 0.4, the Vmax (maximum inhibition value) (inward current induced by 5-HT (1 μM), from concentration-response curves) was 86.5% and the IC50 (read-out: IC50 (50% inhibitory concentration), inward current induced by 5-HT (1 μM), test concentrations 0.003-100 μM) was 5.9 µM.

Reference: patent publication US8748422B2, “Pharmaceutical compositions containing quinazoline derivatives for treating as serotonin receptor antagonist” (Korea Institute of Science and Technology, priority 2007, dated 2014)
